Results taken from the supplement of paper PMC10849652.
Some of the results follow.

Sequences of proteins named here, by UniProt entry; tags and fusion partners are left off. A change or cut given only in a name is not applied to a line headed by its entry.
UniProt P05141: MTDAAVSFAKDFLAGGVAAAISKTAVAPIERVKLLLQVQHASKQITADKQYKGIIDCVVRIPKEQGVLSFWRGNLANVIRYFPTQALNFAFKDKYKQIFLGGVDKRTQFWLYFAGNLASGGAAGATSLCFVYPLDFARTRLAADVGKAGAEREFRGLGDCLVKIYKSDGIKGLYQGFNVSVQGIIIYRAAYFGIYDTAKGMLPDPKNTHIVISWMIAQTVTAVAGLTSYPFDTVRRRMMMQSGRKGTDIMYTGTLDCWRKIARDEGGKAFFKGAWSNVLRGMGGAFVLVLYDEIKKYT
UniProt Q6PML9: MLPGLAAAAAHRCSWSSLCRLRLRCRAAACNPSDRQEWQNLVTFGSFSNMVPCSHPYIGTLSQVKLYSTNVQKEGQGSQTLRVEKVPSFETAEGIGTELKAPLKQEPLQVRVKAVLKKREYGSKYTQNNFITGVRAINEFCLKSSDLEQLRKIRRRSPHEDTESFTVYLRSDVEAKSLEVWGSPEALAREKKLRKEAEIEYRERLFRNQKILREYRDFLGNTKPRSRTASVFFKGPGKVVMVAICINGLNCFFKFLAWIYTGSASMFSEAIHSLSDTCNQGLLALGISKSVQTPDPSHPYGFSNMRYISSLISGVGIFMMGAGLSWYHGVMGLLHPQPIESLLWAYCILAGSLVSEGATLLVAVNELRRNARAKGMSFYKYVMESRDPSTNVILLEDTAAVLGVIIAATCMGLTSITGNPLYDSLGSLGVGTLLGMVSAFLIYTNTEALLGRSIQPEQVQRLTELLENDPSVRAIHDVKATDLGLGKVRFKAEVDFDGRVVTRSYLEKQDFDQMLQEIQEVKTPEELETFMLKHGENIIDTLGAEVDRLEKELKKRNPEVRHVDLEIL
UniProt Q13433: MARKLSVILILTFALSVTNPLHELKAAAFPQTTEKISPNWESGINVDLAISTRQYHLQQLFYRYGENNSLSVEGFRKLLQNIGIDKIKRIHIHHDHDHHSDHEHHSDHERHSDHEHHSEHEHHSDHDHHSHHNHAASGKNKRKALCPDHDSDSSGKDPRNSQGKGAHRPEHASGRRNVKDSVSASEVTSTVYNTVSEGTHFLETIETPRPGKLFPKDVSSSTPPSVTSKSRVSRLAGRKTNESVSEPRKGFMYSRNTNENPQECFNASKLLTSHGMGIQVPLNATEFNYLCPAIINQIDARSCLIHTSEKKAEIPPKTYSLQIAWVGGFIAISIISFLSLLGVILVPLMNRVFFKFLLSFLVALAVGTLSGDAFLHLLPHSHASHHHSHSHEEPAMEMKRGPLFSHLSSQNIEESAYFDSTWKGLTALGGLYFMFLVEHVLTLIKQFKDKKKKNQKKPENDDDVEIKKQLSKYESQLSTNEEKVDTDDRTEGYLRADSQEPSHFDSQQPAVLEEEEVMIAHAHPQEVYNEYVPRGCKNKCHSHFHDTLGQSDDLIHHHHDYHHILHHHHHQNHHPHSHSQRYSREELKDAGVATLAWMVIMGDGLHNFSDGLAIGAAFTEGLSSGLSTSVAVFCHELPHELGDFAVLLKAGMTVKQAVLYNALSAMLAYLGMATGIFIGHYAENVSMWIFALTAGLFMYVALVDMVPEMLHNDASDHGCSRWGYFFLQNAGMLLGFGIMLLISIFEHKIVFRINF
UniProt L0R6Q1: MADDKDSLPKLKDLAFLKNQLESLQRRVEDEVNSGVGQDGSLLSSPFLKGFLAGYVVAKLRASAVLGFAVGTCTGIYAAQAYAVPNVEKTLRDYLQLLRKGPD
UniProt Q9Y6M7: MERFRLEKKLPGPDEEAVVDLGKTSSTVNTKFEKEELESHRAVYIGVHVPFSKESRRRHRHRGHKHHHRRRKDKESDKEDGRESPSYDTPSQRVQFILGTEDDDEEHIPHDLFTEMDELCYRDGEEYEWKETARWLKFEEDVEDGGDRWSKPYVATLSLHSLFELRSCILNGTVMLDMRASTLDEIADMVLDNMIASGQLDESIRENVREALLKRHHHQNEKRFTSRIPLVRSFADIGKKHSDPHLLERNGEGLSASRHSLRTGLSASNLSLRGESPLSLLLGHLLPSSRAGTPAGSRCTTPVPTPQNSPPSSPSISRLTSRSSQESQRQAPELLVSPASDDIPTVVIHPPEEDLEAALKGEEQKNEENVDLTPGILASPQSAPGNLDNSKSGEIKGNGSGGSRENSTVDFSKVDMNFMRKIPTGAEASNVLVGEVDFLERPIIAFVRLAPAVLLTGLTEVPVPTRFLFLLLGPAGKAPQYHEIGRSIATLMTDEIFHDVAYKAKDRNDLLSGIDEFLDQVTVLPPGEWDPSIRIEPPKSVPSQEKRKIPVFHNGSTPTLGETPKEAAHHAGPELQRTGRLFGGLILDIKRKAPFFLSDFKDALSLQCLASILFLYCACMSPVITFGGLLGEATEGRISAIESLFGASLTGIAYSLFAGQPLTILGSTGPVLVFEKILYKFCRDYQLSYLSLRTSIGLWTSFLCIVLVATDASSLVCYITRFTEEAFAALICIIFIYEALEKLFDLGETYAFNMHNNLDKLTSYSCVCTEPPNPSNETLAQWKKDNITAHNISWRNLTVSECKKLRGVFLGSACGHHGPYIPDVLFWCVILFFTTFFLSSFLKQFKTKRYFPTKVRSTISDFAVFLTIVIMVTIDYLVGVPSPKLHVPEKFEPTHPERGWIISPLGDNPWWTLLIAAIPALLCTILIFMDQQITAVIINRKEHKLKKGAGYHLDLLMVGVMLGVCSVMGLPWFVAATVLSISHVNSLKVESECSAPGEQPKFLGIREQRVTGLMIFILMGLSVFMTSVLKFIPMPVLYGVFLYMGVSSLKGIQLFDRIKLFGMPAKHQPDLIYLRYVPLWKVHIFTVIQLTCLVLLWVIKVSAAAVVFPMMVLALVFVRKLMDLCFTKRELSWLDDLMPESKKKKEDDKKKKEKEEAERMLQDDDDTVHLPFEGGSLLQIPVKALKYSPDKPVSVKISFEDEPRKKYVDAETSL
UniProt Q6NUK1: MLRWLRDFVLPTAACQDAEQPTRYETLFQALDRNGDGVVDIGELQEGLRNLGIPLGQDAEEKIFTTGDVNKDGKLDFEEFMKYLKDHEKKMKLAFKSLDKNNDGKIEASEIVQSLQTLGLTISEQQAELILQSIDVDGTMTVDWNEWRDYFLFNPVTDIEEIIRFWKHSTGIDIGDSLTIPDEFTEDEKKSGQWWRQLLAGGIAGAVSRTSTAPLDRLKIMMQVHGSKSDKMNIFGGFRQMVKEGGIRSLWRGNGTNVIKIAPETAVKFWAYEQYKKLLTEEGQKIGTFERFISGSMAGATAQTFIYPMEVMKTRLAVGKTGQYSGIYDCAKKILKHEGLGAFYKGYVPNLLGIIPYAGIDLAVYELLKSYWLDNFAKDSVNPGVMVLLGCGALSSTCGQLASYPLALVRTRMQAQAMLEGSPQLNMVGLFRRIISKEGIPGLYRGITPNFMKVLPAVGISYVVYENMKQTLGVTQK
UniProt Q9UPY5: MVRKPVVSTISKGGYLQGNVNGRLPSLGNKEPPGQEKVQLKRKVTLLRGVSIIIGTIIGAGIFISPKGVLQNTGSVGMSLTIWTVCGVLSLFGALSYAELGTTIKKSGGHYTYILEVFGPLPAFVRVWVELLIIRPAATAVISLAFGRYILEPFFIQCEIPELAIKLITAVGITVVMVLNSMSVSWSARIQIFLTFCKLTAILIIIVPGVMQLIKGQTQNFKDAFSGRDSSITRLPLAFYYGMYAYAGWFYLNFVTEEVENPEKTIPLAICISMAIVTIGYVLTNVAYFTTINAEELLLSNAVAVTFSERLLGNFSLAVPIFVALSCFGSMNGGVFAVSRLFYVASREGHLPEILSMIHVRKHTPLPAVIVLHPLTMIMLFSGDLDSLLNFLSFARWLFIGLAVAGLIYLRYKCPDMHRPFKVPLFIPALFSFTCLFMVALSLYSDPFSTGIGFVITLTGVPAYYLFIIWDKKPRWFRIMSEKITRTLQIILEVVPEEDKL
UniProt Q15043: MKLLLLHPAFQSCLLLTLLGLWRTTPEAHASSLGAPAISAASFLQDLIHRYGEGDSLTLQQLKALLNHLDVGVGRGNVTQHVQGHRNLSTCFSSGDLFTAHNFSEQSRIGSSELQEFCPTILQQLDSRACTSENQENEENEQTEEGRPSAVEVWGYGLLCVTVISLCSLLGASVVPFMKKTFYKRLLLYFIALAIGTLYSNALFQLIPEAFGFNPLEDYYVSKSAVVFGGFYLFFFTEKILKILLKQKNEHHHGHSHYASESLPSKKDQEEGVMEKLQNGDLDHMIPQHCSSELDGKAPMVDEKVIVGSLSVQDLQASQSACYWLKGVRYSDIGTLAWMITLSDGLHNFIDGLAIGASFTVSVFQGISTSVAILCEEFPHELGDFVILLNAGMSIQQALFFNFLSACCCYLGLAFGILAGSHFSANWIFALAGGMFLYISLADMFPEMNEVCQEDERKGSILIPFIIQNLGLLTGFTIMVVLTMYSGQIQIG
UniProt P49281: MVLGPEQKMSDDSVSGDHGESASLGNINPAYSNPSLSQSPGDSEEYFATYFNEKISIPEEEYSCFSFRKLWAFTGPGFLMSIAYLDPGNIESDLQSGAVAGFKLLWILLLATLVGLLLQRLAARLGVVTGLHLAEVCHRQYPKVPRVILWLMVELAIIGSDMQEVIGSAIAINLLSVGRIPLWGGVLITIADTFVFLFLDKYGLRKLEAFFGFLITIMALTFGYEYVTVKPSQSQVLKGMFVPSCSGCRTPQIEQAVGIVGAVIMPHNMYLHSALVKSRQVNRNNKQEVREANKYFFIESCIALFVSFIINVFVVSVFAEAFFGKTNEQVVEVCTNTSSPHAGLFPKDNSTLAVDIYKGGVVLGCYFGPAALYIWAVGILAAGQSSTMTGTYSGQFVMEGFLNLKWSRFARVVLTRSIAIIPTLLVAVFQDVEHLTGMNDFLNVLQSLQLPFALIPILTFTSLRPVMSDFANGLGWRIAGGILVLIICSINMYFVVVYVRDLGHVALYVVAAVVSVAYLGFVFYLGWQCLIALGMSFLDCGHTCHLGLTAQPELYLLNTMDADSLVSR
UniProt Q9BXS9: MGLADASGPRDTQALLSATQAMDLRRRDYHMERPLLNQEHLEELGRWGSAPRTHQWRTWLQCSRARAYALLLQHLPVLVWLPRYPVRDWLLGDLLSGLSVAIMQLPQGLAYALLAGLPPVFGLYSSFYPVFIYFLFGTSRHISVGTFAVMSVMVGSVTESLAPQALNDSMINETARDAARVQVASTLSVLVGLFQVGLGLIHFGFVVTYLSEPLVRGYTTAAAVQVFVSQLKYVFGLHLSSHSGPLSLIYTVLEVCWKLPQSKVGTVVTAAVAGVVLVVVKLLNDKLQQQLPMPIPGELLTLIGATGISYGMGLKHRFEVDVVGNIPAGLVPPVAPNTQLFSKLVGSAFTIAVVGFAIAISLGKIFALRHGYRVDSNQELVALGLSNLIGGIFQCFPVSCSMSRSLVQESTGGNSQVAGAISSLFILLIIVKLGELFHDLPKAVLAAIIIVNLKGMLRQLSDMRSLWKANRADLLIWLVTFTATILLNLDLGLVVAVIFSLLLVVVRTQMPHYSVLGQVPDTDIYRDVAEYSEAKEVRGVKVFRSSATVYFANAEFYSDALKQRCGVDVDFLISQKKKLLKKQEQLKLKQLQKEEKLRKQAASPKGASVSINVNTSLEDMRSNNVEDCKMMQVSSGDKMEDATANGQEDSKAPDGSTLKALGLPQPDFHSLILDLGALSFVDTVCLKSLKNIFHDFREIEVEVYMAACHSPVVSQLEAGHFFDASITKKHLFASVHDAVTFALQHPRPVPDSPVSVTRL
UniProt Q9BQT8: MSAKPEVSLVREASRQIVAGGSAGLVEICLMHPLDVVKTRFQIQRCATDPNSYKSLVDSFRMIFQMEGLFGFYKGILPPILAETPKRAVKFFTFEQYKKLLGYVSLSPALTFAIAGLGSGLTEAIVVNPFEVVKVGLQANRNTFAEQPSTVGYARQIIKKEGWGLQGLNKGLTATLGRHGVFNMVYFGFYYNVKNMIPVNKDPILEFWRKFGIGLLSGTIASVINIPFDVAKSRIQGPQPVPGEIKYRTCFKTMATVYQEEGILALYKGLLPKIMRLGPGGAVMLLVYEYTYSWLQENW
UniProt Q96EP9: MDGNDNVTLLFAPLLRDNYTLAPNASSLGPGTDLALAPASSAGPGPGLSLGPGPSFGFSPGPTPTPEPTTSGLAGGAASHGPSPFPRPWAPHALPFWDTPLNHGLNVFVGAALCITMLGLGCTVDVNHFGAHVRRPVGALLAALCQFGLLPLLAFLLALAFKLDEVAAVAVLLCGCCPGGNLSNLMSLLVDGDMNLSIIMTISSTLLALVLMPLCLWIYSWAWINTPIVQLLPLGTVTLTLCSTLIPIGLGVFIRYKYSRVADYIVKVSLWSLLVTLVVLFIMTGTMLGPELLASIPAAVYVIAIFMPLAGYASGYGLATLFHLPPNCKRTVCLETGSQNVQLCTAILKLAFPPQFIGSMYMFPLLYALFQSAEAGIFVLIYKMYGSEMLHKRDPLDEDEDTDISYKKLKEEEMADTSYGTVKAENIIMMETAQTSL

How the values were obtained:
Assay in all cases: log2 fold change, soluble protein after heating vs DMSO (PISA); higher = thermal stabilisation; K562 cells, 10 uM, 30 min; active = over 0.2 and 3.5 SD of the protein, either way, in both replicates (recomputed)
saracatinib = compound: CN1CCN(CCOc2cc(OC3CCOCC3)c3c(Nc4c(Cl)ccc5c4OCO5)ncnc3c2)CC1 [saracatinib]
How it was run: (§1)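 Soluble protein was defined as the supernatant after 21,000xg for 90 min. It came from K562 cells at 2×10^6 cells/mL given 10 μM compound for 30 min, heated in aliquots for 3 min across 48°C-58°C, pooled, and extracted in PBS with 0.5% NP-40 at 4°C, and was quantified by TMTpro 16plex LC-MS/MS with equalised channel sums. Thermal stability against control samples, from duplicates, is reported as log2 fold change.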

sotrastaurin = compound: CN1CCN(c2nc(C3=C(c4c[nH]c5ccccc45)C(=O)NC3=O)c3ccccc3n2)CC1 [sotrastaurin]
How it was run: as §1

alvocidib = compound: CN1CC[C@H](c2c(O)cc(O)c3c(=O)cc(-c4ccccc4Cl)oc23)[C@H](O)C1 [alvocidib]
How it was run: as §1

Tubastatin A = compound: CN1CCc2c(c3ccccc3n2Cc2ccc(C(=O)NO)cc2)C1 [Tubastatin A]
How it was run: as §1

[1] = compound: CNC(=O)C1=CC=CC=C1NC2=NC(=NC=C2Cl)NC3=C(C=C(C=C3)N4CCOCC4)OC
How it was run: as §1

defactinib = compound: CNC(=O)c1ccc(Nc2ncc(C(F)(F)F)c(NCc3nccnc3N(C)S(C)(=O)=O)n2)cc1 [defactinib]
How it was run: as §1

rucaparib = compound: CNCc1ccc(-c2[nH]c3cc(F)cc4c3c2CCNC4=O)cc1 [rucaparib]
How it was run: as §1

[2] = compound: CNc1nc(-c2ccc3c(N)n[nH]c3c2)cc(N2C[C@@H](C(=O)NC3CCCCC3)CC[C@H]2C)n1
How it was run: as §1

encorafenib = compound: COC(=O)N[C@@H](C)CNc1nccc(-c2cn(C(C)C)nc2-c2cc(Cl)cc(NS(C)(=O)=O)c2F)n1 [encorafenib]
How it was run: as §1

[3] = compound: COC(=O)[C@H](CCSC)NC(=O)C1=C(C=C(C=C1)NC[C@H](CS)N)C2=CC=CC=C2
How it was run: as §1

[4] = compound: COC1=CC=C(C=C1)CN2C=CC3=C2C=C(C=C3)C(=O)NO
How it was run: as §1

filanesib = compound: CON(C)C(=O)N1N=C(c2cc(F)ccc2F)S[C@@]1(CCCN)c1ccccc1 [filanesib]
How it was run: as §1

zotarolimus = compound: CO[C@H]1C[C@@H]2CC[C@@H](C)[C@@](O)(O2)C(=O)C(=O)N2CCCC[C@H]2C(=O)O[C@H]([C@H](C)C[C@@H]2CC[C@H](n3cnnn3)[C@H](OC)C2)CC(=O)[C@H](C)/C=C(\C)[C@@H](O)[C@@H](OC)C(=O)[C@H](C)C[C@H](C)/C=C/C=C/C=C/1C [zotarolimus]
How it was run: as §1

idasanutlin = compound: COc1cc(C(=O)O)ccc1NC(=O)[C@@H]1N[C@@H](CC(C)(C)C)[C@](C#N)(c2ccc(Cl)cc2F)[C@H]1c1cccc(Cl)c1F [idasanutlin]
How it was run: as §1

alisertib = compound: COc1cc(Nc2ncc3c(n2)-c2ccc(Cl)cc2C(c2c(F)cccc2OC)=NC3)ccc1C(=O)O [alisertib]
How it was run: as §1

[5] = compound: COc1cc2nc(-c3cc(F)ccc3O)nc(N[C@@H]3CNC[C@H]3C(C)(C)O)c2cc1OC
How it was run: as §1

gefitinib = compound: COc1cc2ncnc(Nc3ccc(F)c(Cl)c3)c2cc1OCCCN1CCOCC1 [gefitinib]
How it was run: as §1

[6] = compound: COc1cccc2cc(-c3nc([C@H]4CC[C@H](C(=O)O)CC4)n4ncnc(N)c34)[nH]c12
How it was run: as §1

lapatinib = compound: CS(=O)(=O)CCNCc1ccc(-c2ccc3ncnc(Nc4ccc(OCc5cccc(F)c5)c(Cl)c4)c3c2)o1 [lapatinib]
How it was run: as §1

pictilisib = compound: CS(=O)(=O)N1CCN(Cc2cc3nc(-c4cccc5[nH]ncc45)nc(N4CCOCC4)c3s2)CC1 [pictilisib]
How it was run: as §1

Measured: log2 fold change

SLC25A51 (UniProt Q9H1U9)
inactive: saracatinib 0.056 | sotrastaurin 0.073 | alvocidib -0.015 | Tubastatin A 0.016 | [1] -0.026 | defactinib -0.003 | rucaparib -0.066 | [2] -0.003 | encorafenib 0.018 | [3] 0.017 | [4] -0.06 | filanesib -0.06 | zotarolimus 0.003 | idasanutlin -0.014 | alisertib -0.027 | [5] 0.012 | gefitinib -0.005 | [6] 0.077 | lapatinib 0 | pictilisib 0.013

SLC25A5 (UniProt P05141)
inactive: saracatinib 0.069 | sotrastaurin 0.05 | alvocidib -0.065 | Tubastatin A -0.023 | [1] 0.022 | defactinib -0.018 | rucaparib 0.013 | [2] 0.009 | encorafenib -0.056 | [3] 0.004 | [4] -0.024 | filanesib -0.011 | zotarolimus 0.198 | idasanutlin 0.086 | alisertib 0.006 | [5] -0.037 | gefitinib -0.023 | [6] -0.017 | lapatinib -0.059 | pictilisib -0.043

SLC30A9 (UniProt Q6PML9)
inactive: saracatinib -0.004 | sotrastaurin 0.053 | alvocidib -0.063 | Tubastatin A -0.016 | [1] 0.01 | defactinib -0.083 | rucaparib -0.033 | [2] 0.013 | encorafenib 0.028 | [3] -0.017 | [4] 0.01 | filanesib -0.014 | zotarolimus 0.047 | idasanutlin 0.036 | alisertib 0.057 | [5] -0.015 | gefitinib -0.003 | [6] 0.123 | lapatinib 0.022 | pictilisib 0.072

SLC39A6 (UniProt Q13433)
inactive: saracatinib -0.104 | sotrastaurin 0.089 | alvocidib 0.02 | Tubastatin A 0.033 | [1] -0.029 | defactinib -0.034 | rucaparib 0.046 | [2] 0 | encorafenib 0.022 | [3] 0.017 | [4] -0.098 | filanesib 0.127 | zotarolimus -0.049 | idasanutlin 0.1 | alisertib -0.088 | [5] 0.07 | gefitinib -0.001 | [6] 0.165 | lapatinib 0.021 | pictilisib 0.101

SLC25A20 (UniProt O43772)
inactive: saracatinib 0.032 | sotrastaurin 0.032 | alvocidib -0.006 | Tubastatin A -0.067 | [1] -0.015 | defactinib 0.001 | rucaparib -0.02 | [2] -0.016 | encorafenib 0.022 | [3] 0.026 | [4] 0.021 | filanesib -0.025 | zotarolimus 0.015 | idasanutlin -0.021 | alisertib -0.043 | [5] -0.098 | gefitinib -0.007 | [6] 0.036 | lapatinib 0.059 | pictilisib -0.01

SLC35A4 (UniProt L0R6Q1)
inactive: saracatinib 0.065 | sotrastaurin -0.01 | alvocidib 0.014 | Tubastatin A -0.033 | [1] -0.004 | defactinib -0.033 | rucaparib -0.028 | [2] -0.007 | encorafenib -0.009 | [3] 0.073 | [4] -0.044 | filanesib -0.02 | zotarolimus -0.085 | idasanutlin 0.074 | alisertib -0.055 | [5] -0.055 | gefitinib 0.058 | [6] 0.072 | lapatinib -0.027 | pictilisib -0.005

SLC30A5 (UniProt Q8TAD4)
inactive: saracatinib -0.022 | sotrastaurin 0.08 | alvocidib -0.089 | Tubastatin A 0 | [1] -0.1 | defactinib -0.108 | rucaparib -0.05 | [2] 0.015 | encorafenib 0.049 | [3] -0.028 | [4] -0.001 | filanesib -0.01 | zotarolimus -0.051 | idasanutlin 0.007 | alisertib 0.097 | [5] 0.076 | gefitinib 0.064 | [6] 0.041 | lapatinib 0.03 | pictilisib -0.088

SLC4A7 isoform 7 (UniProt Q9Y6M7)
inactive: saracatinib -0.066 | sotrastaurin 0.043 | alvocidib 0.147 | Tubastatin A 0.183 | [1] -0.005 | defactinib 0.015 | rucaparib 0.145 | [2] 0.077 | encorafenib -0.026 | [3] -0.048 | [4] -0.007 | filanesib -0.026 | zotarolimus -0.101 | idasanutlin 0.144 | alisertib -0.044 | [5] -0.089 | gefitinib 0.152 | [6] 0.058 | lapatinib -0.018

SLC25A24 (UniProt Q6NUK1)
inactive: saracatinib 0.049 | sotrastaurin 0.046 | alvocidib -0.01 | Tubastatin A -0.032 | [1] 0.011 | defactinib -0.008 | rucaparib -0.018 | [2] -0.05 | encorafenib -0.021 | [3] 0.028 | [4] -0.019 | filanesib -0.053 | zotarolimus -0.025 | idasanutlin -0.012 | alisertib -0.04 | [5] 0.019 | gefitinib 0.013 | [6] 0.041 | lapatinib -0.023 | pictilisib -0.031

SLC7A11 (UniProt Q9UPY5)
inactive: saracatinib 0.005 | sotrastaurin 0.039 | alvocidib -0.022 | Tubastatin A 0.023 | [1] -0.042 | defactinib -0.047 | rucaparib -0.008 | [2] -0.011 | encorafenib -0.018 | [3] 0.031 | [4] -0.008 | filanesib 0.083 | zotarolimus -0.015 | idasanutlin -0.003 | alisertib -0.056 | [5] 0.039 | gefitinib -0.061 | [6] 0.006 | lapatinib -0.067 | pictilisib 0.073

Quoted at random: two records from the list, in no set order.
SLC7A11 (UniProt Q9UPY5)
inactive: saracatinib 0.005 | sotrastaurin 0.039 | alvocidib -0.022 | Tubastatin A 0.023 | [1] -0.042 | defactinib -0.047 | rucaparib -0.008 | [2] -0.011 | encorafenib -0.018 | [3] 0.031 | [4] -0.008 | filanesib 0.083 | zotarolimus -0.015 | idasanutlin -0.003 | alisertib -0.056 | [5] 0.039 | gefitinib -0.061 | [6] 0.006 | lapatinib -0.067 | pictilisib 0.073

SLC4A7 isoform 7 (UniProt Q9Y6M7)
inactive: saracatinib -0.066 | sotrastaurin 0.043 | alvocidib 0.147 | Tubastatin A 0.183 | [1] -0.005 | defactinib 0.015 | rucaparib 0.145 | [2] 0.077 | encorafenib -0.026 | [3] -0.048 | [4] -0.007 | filanesib -0.026 | zotarolimus -0.101 | idasanutlin 0.144 | alisertib -0.044 | [5] -0.089 | gefitinib 0.152 | [6] 0.058 | lapatinib -0.018

Remaining list, next part.

SLC39A14 (UniProt Q15043)
inactive: saracatinib 0.007 | sotrastaurin 0.034 | alvocidib 0.024 | Tubastatin A 0.005 | [1] -0.033 | defactinib -0.014 | rucaparib -0.04 | [2] -0.008 | encorafenib -0.023 | [3] 0.055 | [4] -0.004 | filanesib 0.001 | zotarolimus -0.019 | idasanutlin -0.012 | alisertib -0.08 | [5] -0.021 | gefitinib 0.024 | [6] 0.061 | lapatinib -0.035 | pictilisib 0.093

SLC11A2 isoform 3 (UniProt P49281)
inactive: saracatinib -0.04 | sotrastaurin 0.04 | alvocidib 0.01 | Tubastatin A -0.023 | [1] 0.041 | defactinib -0.085 | rucaparib -0.193 | [2] -0.084 | encorafenib 0.091 | [3] -0.006 | [4] -0.052 | filanesib -0.217 | zotarolimus -0.139 | idasanutlin 0.061 | alisertib -0.09 | [5] 0.013 | gefitinib 0.028 | [6] 0.159 | lapatinib 0.006

SLC25A3 isoform 2 (UniProt Q00325)
inactive: saracatinib 0.062 | sotrastaurin 0.053 | alvocidib -0.019 | Tubastatin A -0.025 | [1] 0.005 | defactinib 0.036 | rucaparib -0.04 | [2] -0.007 | encorafenib -0.014 | [3] 0.004 | [4] -0.051 | filanesib -0.026 | zotarolimus -0.01 | idasanutlin 0.011 | alisertib -0.038 | [5] -0.003 | gefitinib -0.003 | [6] 0.047 | lapatinib -0.034 | pictilisib -0.01

SLC26A6 (UniProt Q9BXS9)
inactive: saracatinib 0.072 | sotrastaurin 0.071 | alvocidib 0.004 | Tubastatin A -0.055 | [1] -0.154 | defactinib -0.05 | rucaparib 0.061 | [2] -0.06 | encorafenib -0.16 | [3] 0.137 | [4] -0.011 | filanesib 0.081 | zotarolimus -0.029 | idasanutlin 0.089 | alisertib -0.057 | [5] 0.015 | gefitinib 0.098 | [6] 0.128 | lapatinib 0.015 | pictilisib 0.209

SLC25A21 (UniProt Q9BQT8)
inactive: saracatinib 0.061 | sotrastaurin 0.025 | alvocidib 0.046 | Tubastatin A -0.113 | [1] 0.027 | defactinib -0.013 | rucaparib 0.002 | [2] -0.058 | encorafenib -0.011 | [3] 0.034 | [4] -0.062 | filanesib -0.076 | zotarolimus -0.055 | idasanutlin -0.007 | alisertib -0.059 | [5] -0.004 | gefitinib 0.017 | [6] 0.101 | lapatinib -0.016 | pictilisib 0.001

SLC10A4 (UniProt Q96EP9)
inactive: saracatinib -0.026 | sotrastaurin 0.051 | alvocidib 0.024 | Tubastatin A -0.078 | [1] -0.019 | defactinib 0.036 | rucaparib -0.055 | [2] -0.029 | encorafenib 0.009 | [3] 0.011 | [4] -0.325 | filanesib 0.085 | zotarolimus -0.006 | idasanutlin 0.041 | alisertib -0.022 | [5] 0.086 | gefitinib -0.119 | [6] 0.252 | lapatinib -0.177 | pictilisib -0.039
